{"source": "patent EP2567943A1", "about": "“TITANIUM COAGULANT FOR NATURAL AND WASTE WATER PURIFICATION AND DISINFECTION AND METHOD FOR UTILIZING THEREOF” (Sittec Closed Joint Stock Company (Sittec CJSC), priority 2007, dated 2009)", "test": "acute toxicity (hazard indices)", "settings": "in vivo", "method": "Testing the safe method for producing and utilizing the claimed titanium coagulant (absence of mutagenous impact; sensibilizing, allergenic, carcinogenic, gonadotoxic and other action) was carried out on the base of the State organ SRI of human ecology and environmental hygiene named after A.N. Sysin of the Russian Academy of Medical Sciences (RAMS).\nParticularly, derivatives of aluminium oxychloride (AOC) and aluminium sulfate are monitored in accordance with the aluminium content in potable water. While testing the new coagulant, the same principles for evaluating the titanium coagulant safety as the safety evaluation of coagulants based on aluminium were applied. […]", "note": "At least one read-out could not be matched to a standard name with certainty.", "data": [{"substance": "aluminium oxychloride [AOC, reference compound]", "values": [{"measurement": "LD50", "value": 4320, "unit": "mg/kg"}]}]}
